Data as given in PubChem BioAssay AID1224828 (NIAID, 2016)
In all, the deposit lists about 17,000 reagents; this is a random part of them. In the full data, 762 (4.5%) were called active. 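Active calls include both raised and lowered p65 entry, mostly lowered; wells with fewer than 50 cells lack a z-score.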 The raw values are shown without normalisation.

Test: 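Find genes required for NF-kappaB p65 moving into the nucleus after LPS in mouse macrophages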 (primary screen)
Cell system: mouse RAW264.7 G9 macrophage reporter cells (GFP-p65, Tnf promoter-mCherry)
Reagents: siRNA pool against mouse genes, 100 nM
Timing: 2 days siRNA transfection, then 40 min LPS before fixation
Conditions: LPS (Salmonella minnesota R595) at 10 ng/ml
Measured: 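Imaged p65 nuclear translocation ratio, normalised to the plate median, converted to robust z-scores and averaged across two replicates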
Reading the numbers: p65 translocation robust z-score: higher = more nuclear NF-kappaB p65 after LPS than the plate median; nuclear/cytoplasmic p65 ratio: higher = more nuclear NF-kappaB p65
Hit rule: 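Called active when z exceeds 3.3 or falls under -1.56 (median of Tlr4 controls), giving activity score of at least 50; no calls for control wells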
Calls: active = hit (p65 shift raised or lowered); inactive = no clear change

Nop56
- p65 translocation robust z-score: 1.54
- nuclear/cytoplasmic p65 ratio, rep 1: 2.01
- nuclear/cytoplasmic p65 ratio, rep 2: 1.7
- low cell count flag: enough cells to score
- Call: inactive

Dguok
- p65 translocation robust z-score: 0.32
- nuclear/cytoplasmic p65 ratio, rep 1: 1.75
- nuclear/cytoplasmic p65 ratio, rep 2: 1.43
- low cell count flag: enough cells to score
- Call: inactive

Gm4836
- p65 translocation robust z-score: -0.91
- nuclear/cytoplasmic p65 ratio, rep 1: 1.23
- nuclear/cytoplasmic p65 ratio, rep 2: 1.2
- low cell count flag: enough cells to score
- Call: inactive

Spats2l
- p65 translocation robust z-score: 1.01
- nuclear/cytoplasmic p65 ratio, rep 1: 1.56
- nuclear/cytoplasmic p65 ratio, rep 2: 1.57
- low cell count flag: enough cells to score
- Call: inactive

Rnf38
- nuclear/cytoplasmic p65 ratio, rep 1: 1.65
- nuclear/cytoplasmic p65 ratio, rep 2: 1.16
- low cell count flag: fewer than 50 cells per well; well left out of scoring
- Call: inactive

Sox3
- p65 translocation robust z-score: -0.28
- nuclear/cytoplasmic p65 ratio, rep 1: 1.42
- nuclear/cytoplasmic p65 ratio, rep 2: 1.6
- low cell count flag: enough cells to score
- Call: inactive

Or5p53
- p65 translocation robust z-score: 0.17
- nuclear/cytoplasmic p65 ratio, rep 1: 1.44
- nuclear/cytoplasmic p65 ratio, rep 2: 1.31
- low cell count flag: enough cells to score
- Call: inactive

Tcerg1
- p65 translocation robust z-score: -0.04
- nuclear/cytoplasmic p65 ratio, rep 1: 1.54
- nuclear/cytoplasmic p65 ratio, rep 2: 1.49
- low cell count flag: enough cells to score
- Call: inactive

Naa35
- p65 translocation robust z-score: 1.59
- nuclear/cytoplasmic p65 ratio, rep 1: 2.03
- nuclear/cytoplasmic p65 ratio, rep 2: 1.72
- low cell count flag: enough cells to score
- Call: inactive

Dnajc18
- nuclear/cytoplasmic p65 ratio, rep 1: 1.27
- nuclear/cytoplasmic p65 ratio, rep 2: 1.45
- low cell count flag: fewer than 50 cells per well; well left out of scoring
- Call: inactive

Sftpa1
- p65 translocation robust z-score: -0.64
- nuclear/cytoplasmic p65 ratio, rep 1: 1.43
- nuclear/cytoplasmic p65 ratio, rep 2: 1.49
- low cell count flag: enough cells to score
- Call: inactive

Mcpt1
- p65 translocation robust z-score: 1.59
- nuclear/cytoplasmic p65 ratio, rep 1: 1.91
- nuclear/cytoplasmic p65 ratio, rep 2: 1.83
- low cell count flag: enough cells to score
- Call: inactive

Mep1a
- p65 translocation robust z-score: 1.48
- nuclear/cytoplasmic p65 ratio, rep 1: 1.55
- nuclear/cytoplasmic p65 ratio, rep 2: 1.61
- low cell count flag: enough cells to score
- Call: inactive

Il31ra
- p65 translocation robust z-score: 0.15
- nuclear/cytoplasmic p65 ratio, rep 1: 1.5
- nuclear/cytoplasmic p65 ratio, rep 2: 1.4
- low cell count flag: enough cells to score
- Call: inactive

Ubxn2a
- p65 translocation robust z-score: 1.37
- nuclear/cytoplasmic p65 ratio, rep 1: 1.52
- nuclear/cytoplasmic p65 ratio, rep 2: 1.43
- low cell count flag: enough cells to score
- Call: inactive

Edc4
- p65 translocation robust z-score: 0.49
- nuclear/cytoplasmic p65 ratio, rep 1: 1.57
- nuclear/cytoplasmic p65 ratio, rep 2: 2.01
- low cell count flag: enough cells to score
- Call: inactive

Lypd6
- p65 translocation robust z-score: 2.08
- nuclear/cytoplasmic p65 ratio, rep 1: 1.82
- nuclear/cytoplasmic p65 ratio, rep 2: 1.56
- low cell count flag: enough cells to score
- Call: inactive

Mtmr2
- p65 translocation robust z-score: -0.68
- nuclear/cytoplasmic p65 ratio, rep 1: 1.37
- nuclear/cytoplasmic p65 ratio, rep 2: 1.24
- low cell count flag: enough cells to score
- Call: inactive

Ppib
- p65 translocation robust z-score: 0.39
- nuclear/cytoplasmic p65 ratio, rep 1: 1.43
- nuclear/cytoplasmic p65 ratio, rep 2: 1.27
- low cell count flag: enough cells to score
- Call: inactive

Nxf7
- p65 translocation robust z-score: 0.8
- nuclear/cytoplasmic p65 ratio, rep 1: 1.82
- nuclear/cytoplasmic p65 ratio, rep 2: 1.66
- low cell count flag: enough cells to score
- Call: inactive

Cdr1os
- nuclear/cytoplasmic p65 ratio, rep 1: 1.11
- nuclear/cytoplasmic p65 ratio, rep 2: 1.25
- low cell count flag: fewer than 50 cells per well; well left out of scoring
- Call: inactive

3 consecutive reagents from above, quoted:
Tcerg1
- p65 translocation robust z-score: -0.04
- nuclear/cytoplasmic p65 ratio, rep 1: 1.54
- nuclear/cytoplasmic p65 ratio, rep 2: 1.49
- low cell count flag: enough cells to score
- Call: inactive

Naa35
- p65 translocation robust z-score: 1.59
- nuclear/cytoplasmic p65 ratio, rep 1: 2.03
- nuclear/cytoplasmic p65 ratio, rep 2: 1.72
- low cell count flag: enough cells to score
- Call: inactive

Dnajc18
- nuclear/cytoplasmic p65 ratio, rep 1: 1.27
- nuclear/cytoplasmic p65 ratio, rep 2: 1.45
- low cell count flag: fewer than 50 cells per well; well left out of scoring
- Call: inactive
